Assay results taken from the supplement of paper PMC8728848.
The other results are listed elsewhere or left out.

Legend:
Experiment in all cases: glycan array binding signal (z-score within array); higher = stronger binding
Conditions in all cases: glycan notation: IUPAC condensed, linker removed
[1] = biological target: GlcNAc(b1-2)Gal(b1-3)GlcNAc
How it was run: (§1)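 Glycan array data came from 3228 arrays in the Consortium for Functional Glycomics database, and only arrays with an available protein sequence were kept. Glycan names were put into IUPAC-condensed notation, and columns mapping to the same glycan were averaged. The binding signal is a within-array Z-score, averaged across arrays of one protein sequence run at different concentrations or buffers and across linkers. A negative Z-score can be read as non-binding.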

[2] = biological target: GlcNAc(b1-2)Man(a1-3)[GlcNAc(b1-2)Man(a1-6)]Man(b1-4)GlcNAc(b1-4)GlcNAc
How it was run: as §1

GlcNAc(b1-3)Gal = biological target: GlcNAc(b1-3)Gal
How it was run: as §1

[3] = biological target: GlcNAc(b1-3)Gal(b1-3)GalNAc
How it was run: as §1

GlcNAc(b1-3)Gal(b1-4)Glc = biological target: GlcNAc(b1-3)Gal(b1-4)Glc
How it was run: as §1

[4] = biological target: GlcNAc(b1-3)Gal(b1-4)GlcNAc
How it was run: as §1

[5] = biological target: GlcNAc(b1-3)Gal(b1-4)GlcNAc(b1-3)Gal(b1-4)GlcNAc
How it was run: as §1

GlcNAc(b1-3)GalNAc = biological target: GlcNAc(b1-3)GalNAc
How it was run: as §1

[6] = biological target: GlcNAc(b1-3)[GlcNAc(b1-4)][GlcNAc(b1-6)]GlcNAc
How it was run: as §1

[7] = biological target: GlcNAc(b1-3)[GlcNAc(b1-6)]Gal(b1-4)GlcNAc
How it was run: as §1

[8] = biological target: GlcNAc(b1-3)[GlcNAc(b1-6)]GalNAc
How it was run: as §1

[9] = biological target: GlcNAc(b1-3)[GlcNAc(b1-6)]GlcNAc
How it was run: as §1

[10] = biological target: GlcNAc(b1-3)[GlcNAc(b1-6)]GlcNAc(b1-4)GlcNAc
How it was run: as §1

[11] = biological target: GlcNAc(b1-4)Gal(b1-4)GlcNAc
How it was run: as §1

[12] = biological target: GlcNAc(b1-4)GlcNAc(b1-4)GlcNAc
How it was run: as §1

[13] = biological target: GlcNAc(b1-4)GlcNAc(b1-4)GlcNAc(b1-4)GlcNAc(b1-4)GlcNAc
How it was run: as §1

[14] = biological target: GlcNAc(b1-4)GlcNAc(b1-4)GlcNAc(b1-4)GlcNAc(b1-4)GlcNAc(b1-4)GlcNAc
How it was run: as §1

[15] = biological target: GlcNAc(b1-4)[GlcNAc(b1-6)]GalNAc
How it was run: as §1

[16] = biological target: GlcNAc(b1-6)Gal(b1-4)GlcNAc
How it was run: as §1

GlcNAc(b1-6)GalNAc = biological target: GlcNAc(b1-6)GalNAc
How it was run: as §1

Kdn(a2-3)Gal(b1-3)GlcNAc = biological target: Kdn(a2-3)Gal(b1-3)GlcNAc
How it was run: as §1

Kdn(a2-3)Gal(b1-4)GlcNAc = biological target: Kdn(a2-3)Gal(b1-4)GlcNAc
How it was run: as §1

[17] = biological target: Man(a1-2)Man(a1-2)Man(a1-3)Man
How it was run: as §1

[18] = biological target: Man(a1-2)Man(a1-2)Man(a1-3)[Man(a1-2)Man(a1-3)[Man(a1-2)Man(a1-6)]Man(a1-6)]Man(b1-4)GlcNAc(b1-4)GlcNAc
How it was run: as §1

[19] = biological target: Man(a1-2)Man(a1-2)Man(a1-3)[Man(a1-2)Man(a1-6)[Man(a1-3)]Man(a1-6)]Man(b1-4)GlcNAc(b1-4)GlcNAc
How it was run: as §1

[20] = biological target: Man(a1-2)Man(a1-2)Man(a1-6)[Man(a1-3)]Man
How it was run: as §1

Man(a1-2)Man(a1-3)Man = biological target: Man(a1-2)Man(a1-3)Man
How it was run: as §1

[21] = biological target: Man(a1-2)Man(a1-3)[Man(a1-2)Man(a1-6)]Man
How it was run: as §1

[22] = biological target: Man(a1-2)Man(a1-3)[Man(a1-2)Man(a1-6)]Man(a1-6)[Man(a1-2)Man(a1-2)Man(a1-3)]Man(b1-4)GlcNAc(b1-4)GlcNAc
How it was run: as §1

[23] = biological target: Man(a1-2)Man(a1-3)[Man(a1-2)Man(a1-6)]Man(a1-6)[Man(a1-3)[Man(a1-6)]Man(a1-6)]Man(b1-4)GlcNAc(b1-4)GlcNAc
How it was run: as §1

[24] = biological target: Man(a1-2)Man(a1-3)[Man(a1-3)[Man(a1-6)]Man(a1-6)]Man(b1-4)GlcNAc(b1-4)GlcNAc
How it was run: as §1

[25] = biological target: Man(a1-2)Man(a1-3)[Man(a1-6)]Man(a1-6)[Man(a1-2)Man(a1-3)]Man(b1-4)GlcNAc(b1-4)GlcNAc
How it was run: as §1

[26] = biological target: Man(a1-2)Man(a1-6)[Man(a1-3)]Man(a1-6)[Man(a1-2)Man(a1-2)Man(a1-3)]Man(b1-4)GlcNAc(b1-4)GlcNAc
How it was run: as §1

Man(a1-3)[Man(a1-6)]Man = biological target: Man(a1-3)[Man(a1-6)]Man
How it was run: as §1

[27] = biological target: Man(a1-3)[Man(a1-6)]Man(a1-6)[Man(a1-3)]Man(b1-4)GlcNAc(b1-4)GlcNAc
How it was run: as §1

[28] = biological target: Man(a1-3)[Man(a1-6)]Man(b1-4)GlcNAc(b1-4)GlcNAc
How it was run: as §1

Man(b1-4)GlcNAc = biological target: Man(b1-4)GlcNAc
How it was run: as §1

B1: TIM-1 (Mus musculus), AAL35774 (protein)
chain: MNQIQVFISGLILLLPGAVDSYVEVKGVVGHPVTLPCTYSTYRGITTTCWGRGQCPSSACQNTLIWTNGHRVTYQKSSRYNLKGHISEGDVSLTIENSVESDSGLYCCRVEIPGWFNDQKVTFSLQVKPEIPTRPPTRPTTTRPTATGRPTTISTRSTHVPTSIRVSTSTPPTSTHTWTHKPEPTTFCPHETTAEVTGIPSHTPTDWNGTVTSSGDTWSNHTEAIPPGKPQKNPTKGFYVGICIAALLLLLLVSTVAITRYILMKRKSASLSVVAFRVSKIEALQNAAVVHSRAEDNIYIVEDRP
- glycan array binding signal (z-score) [1]: -0.487
- glycan array binding signal (z-score) [2]: 1.17
- glycan array binding signal (z-score) (GlcNAc(b1-3)Gal): -0.449
- glycan array binding signal (z-score) [3]: 0.123
- glycan array binding signal (z-score) (GlcNAc(b1-3)Gal(b1-4)Glc): -0.033
- glycan array binding signal (z-score) [4]: 0.064
- glycan array binding signal (z-score) [5]: -0.327
- glycan array binding signal (z-score) (GlcNAc(b1-3)GalNAc): -0.514
- glycan array binding signal (z-score) [6]: -0.609
- glycan array binding signal (z-score) [7]: -0.387
- glycan array binding signal (z-score) [8]: -0.3
- glycan array binding signal (z-score) [9]: -0.61
- glycan array binding signal (z-score) [10]: 0.029
- glycan array binding signal (z-score) [11]: -0.235
- glycan array binding signal (z-score) [12]: -0.379
- glycan array binding signal (z-score) [13]: 1.29
- glycan array binding signal (z-score) [14]: -0.27
- glycan array binding signal (z-score) [15]: -0.404
- glycan array binding signal (z-score) [16]: -0.402
- glycan array binding signal (z-score) (GlcNAc(b1-6)GalNAc): -0.307
- glycan array binding signal (z-score) (Kdn(a2-3)Gal(b1-3)GlcNAc): -0.558
- glycan array binding signal (z-score) (Kdn(a2-3)Gal(b1-4)GlcNAc): 1.26
- glycan array binding signal (z-score) [17]: 0.548
- glycan array binding signal (z-score) [18]: 1.22
- glycan array binding signal (z-score) [19]: 0.011
- glycan array binding signal (z-score) [20]: -0.193
- glycan array binding signal (z-score) (Man(a1-2)Man(a1-3)Man): -0.049
- glycan array binding signal (z-score) [21]: -0.02
- glycan array binding signal (z-score) [22]: -0.086
- glycan array binding signal (z-score) [23]: -0.455
- glycan array binding signal (z-score) [24]: 0.119
- glycan array binding signal (z-score) [25]: 0.298
- glycan array binding signal (z-score) [26]: -0.215
- glycan array binding signal (z-score) (Man(a1-3)[Man(a1-6)]Man): 0.221
- glycan array binding signal (z-score) [27]: 0.141
- glycan array binding signal (z-score) [28]: 0.07
- glycan array binding signal (z-score) (Man(b1-4)GlcNAc): 0.312
